Experimental data published in article doi:10.1101/2021.05.19.444898.
These are yes or no findings as the source states them, for the method shown. In cells and extracts the contact can be indirect. A yes stands for co-enrichment or nearness to the bait. Other partners may have been found.

Amino acid sequences for entries named in this document (tags omitted). A change or cut given only in a name is not applied to a line headed by its entry.
UniProt A8BPT7: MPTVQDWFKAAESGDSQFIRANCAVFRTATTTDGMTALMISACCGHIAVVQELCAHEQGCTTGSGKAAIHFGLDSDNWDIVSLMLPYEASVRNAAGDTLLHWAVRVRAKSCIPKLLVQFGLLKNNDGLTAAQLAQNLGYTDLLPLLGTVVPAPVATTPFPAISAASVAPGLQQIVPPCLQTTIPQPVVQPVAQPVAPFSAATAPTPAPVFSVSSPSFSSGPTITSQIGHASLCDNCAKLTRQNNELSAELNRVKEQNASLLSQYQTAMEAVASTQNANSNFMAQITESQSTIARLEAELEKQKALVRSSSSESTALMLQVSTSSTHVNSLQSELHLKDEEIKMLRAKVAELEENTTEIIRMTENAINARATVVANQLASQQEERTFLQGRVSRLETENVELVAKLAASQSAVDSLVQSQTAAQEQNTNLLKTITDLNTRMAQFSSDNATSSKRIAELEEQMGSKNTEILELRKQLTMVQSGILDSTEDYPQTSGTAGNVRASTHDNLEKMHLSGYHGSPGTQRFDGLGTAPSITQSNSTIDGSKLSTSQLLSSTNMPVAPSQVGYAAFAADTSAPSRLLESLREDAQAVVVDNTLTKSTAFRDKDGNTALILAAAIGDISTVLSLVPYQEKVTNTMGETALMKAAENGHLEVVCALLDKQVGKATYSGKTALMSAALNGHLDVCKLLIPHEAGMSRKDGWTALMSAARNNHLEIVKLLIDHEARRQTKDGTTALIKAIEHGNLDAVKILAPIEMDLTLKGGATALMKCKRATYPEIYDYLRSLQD
UniProt A8BDA9: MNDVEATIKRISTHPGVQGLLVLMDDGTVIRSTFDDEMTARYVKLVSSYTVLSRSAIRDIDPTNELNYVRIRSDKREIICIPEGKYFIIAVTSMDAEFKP
UniProt E2RTN7: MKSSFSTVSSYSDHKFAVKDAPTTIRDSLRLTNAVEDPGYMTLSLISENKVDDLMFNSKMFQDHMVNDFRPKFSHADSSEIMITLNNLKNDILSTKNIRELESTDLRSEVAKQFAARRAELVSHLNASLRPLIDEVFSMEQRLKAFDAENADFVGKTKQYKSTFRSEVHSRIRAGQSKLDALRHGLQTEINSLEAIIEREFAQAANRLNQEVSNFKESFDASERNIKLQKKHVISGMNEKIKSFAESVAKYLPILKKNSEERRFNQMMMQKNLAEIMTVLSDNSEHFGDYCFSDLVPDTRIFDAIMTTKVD
UniProt A8B9U8: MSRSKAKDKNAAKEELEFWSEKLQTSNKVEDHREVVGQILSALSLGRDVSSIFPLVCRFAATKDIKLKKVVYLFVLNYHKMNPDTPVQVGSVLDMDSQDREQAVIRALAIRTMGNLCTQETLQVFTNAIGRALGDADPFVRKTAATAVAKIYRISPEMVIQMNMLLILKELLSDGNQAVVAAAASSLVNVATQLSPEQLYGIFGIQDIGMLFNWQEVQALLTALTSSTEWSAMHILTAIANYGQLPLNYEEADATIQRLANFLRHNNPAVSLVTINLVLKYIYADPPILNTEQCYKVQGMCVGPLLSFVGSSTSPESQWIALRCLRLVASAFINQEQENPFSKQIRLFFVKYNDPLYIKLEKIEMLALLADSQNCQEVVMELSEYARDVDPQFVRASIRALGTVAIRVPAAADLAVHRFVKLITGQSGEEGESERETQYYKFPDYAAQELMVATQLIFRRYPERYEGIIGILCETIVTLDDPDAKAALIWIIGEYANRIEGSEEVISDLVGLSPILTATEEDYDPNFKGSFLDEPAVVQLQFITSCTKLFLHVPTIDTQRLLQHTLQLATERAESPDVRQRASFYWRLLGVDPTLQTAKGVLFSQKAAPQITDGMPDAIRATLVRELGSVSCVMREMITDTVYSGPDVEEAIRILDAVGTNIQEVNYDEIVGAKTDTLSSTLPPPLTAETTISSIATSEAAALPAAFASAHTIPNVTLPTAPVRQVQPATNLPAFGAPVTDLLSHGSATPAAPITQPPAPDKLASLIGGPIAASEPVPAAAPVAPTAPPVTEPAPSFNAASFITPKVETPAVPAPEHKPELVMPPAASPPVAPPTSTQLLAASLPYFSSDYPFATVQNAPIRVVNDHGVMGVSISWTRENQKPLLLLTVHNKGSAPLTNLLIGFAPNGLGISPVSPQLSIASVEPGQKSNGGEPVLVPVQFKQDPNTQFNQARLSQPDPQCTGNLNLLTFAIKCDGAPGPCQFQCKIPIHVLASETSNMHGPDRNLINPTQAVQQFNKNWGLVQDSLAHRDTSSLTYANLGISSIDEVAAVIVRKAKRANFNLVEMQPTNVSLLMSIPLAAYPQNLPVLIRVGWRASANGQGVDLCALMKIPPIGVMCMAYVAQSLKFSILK
UniProt A8BGY8: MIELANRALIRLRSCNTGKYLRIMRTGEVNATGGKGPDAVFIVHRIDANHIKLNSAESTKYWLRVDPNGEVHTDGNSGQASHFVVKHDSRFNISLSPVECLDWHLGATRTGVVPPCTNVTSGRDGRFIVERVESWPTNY
UniProt A8BXV9: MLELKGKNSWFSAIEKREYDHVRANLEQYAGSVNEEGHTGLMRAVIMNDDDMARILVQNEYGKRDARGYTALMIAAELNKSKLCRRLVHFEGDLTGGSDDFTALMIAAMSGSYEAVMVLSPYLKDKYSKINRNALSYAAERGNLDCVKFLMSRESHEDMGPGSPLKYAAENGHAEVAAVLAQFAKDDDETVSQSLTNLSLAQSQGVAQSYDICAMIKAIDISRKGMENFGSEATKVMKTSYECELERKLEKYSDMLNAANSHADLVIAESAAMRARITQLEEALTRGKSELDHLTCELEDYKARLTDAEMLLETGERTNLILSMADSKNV
UniProt A8BMP5: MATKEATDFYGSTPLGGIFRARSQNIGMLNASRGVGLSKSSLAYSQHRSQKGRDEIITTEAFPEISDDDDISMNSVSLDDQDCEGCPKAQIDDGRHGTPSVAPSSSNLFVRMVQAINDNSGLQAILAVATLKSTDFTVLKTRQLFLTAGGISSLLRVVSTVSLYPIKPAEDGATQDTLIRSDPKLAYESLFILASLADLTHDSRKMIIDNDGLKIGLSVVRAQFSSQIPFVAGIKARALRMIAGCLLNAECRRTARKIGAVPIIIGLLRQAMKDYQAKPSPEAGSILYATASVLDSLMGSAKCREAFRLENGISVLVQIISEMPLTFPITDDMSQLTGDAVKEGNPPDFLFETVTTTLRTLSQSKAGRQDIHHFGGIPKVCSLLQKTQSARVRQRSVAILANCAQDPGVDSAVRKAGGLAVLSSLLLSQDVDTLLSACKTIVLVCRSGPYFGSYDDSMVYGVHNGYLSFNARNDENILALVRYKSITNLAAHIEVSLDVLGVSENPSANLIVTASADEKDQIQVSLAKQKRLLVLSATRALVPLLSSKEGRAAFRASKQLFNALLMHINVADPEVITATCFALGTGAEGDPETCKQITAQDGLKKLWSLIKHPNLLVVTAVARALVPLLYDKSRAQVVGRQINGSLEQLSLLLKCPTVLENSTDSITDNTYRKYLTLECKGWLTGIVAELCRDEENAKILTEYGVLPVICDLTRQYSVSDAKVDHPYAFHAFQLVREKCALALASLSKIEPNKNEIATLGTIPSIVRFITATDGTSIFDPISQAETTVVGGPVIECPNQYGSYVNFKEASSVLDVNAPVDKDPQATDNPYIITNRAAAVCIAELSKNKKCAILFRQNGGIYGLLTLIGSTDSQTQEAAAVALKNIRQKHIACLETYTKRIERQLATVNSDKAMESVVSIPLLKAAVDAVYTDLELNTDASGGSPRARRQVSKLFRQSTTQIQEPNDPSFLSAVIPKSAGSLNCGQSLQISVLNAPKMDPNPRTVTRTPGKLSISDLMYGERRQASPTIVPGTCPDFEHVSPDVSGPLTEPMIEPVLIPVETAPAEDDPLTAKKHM
UniProt A0A644F565: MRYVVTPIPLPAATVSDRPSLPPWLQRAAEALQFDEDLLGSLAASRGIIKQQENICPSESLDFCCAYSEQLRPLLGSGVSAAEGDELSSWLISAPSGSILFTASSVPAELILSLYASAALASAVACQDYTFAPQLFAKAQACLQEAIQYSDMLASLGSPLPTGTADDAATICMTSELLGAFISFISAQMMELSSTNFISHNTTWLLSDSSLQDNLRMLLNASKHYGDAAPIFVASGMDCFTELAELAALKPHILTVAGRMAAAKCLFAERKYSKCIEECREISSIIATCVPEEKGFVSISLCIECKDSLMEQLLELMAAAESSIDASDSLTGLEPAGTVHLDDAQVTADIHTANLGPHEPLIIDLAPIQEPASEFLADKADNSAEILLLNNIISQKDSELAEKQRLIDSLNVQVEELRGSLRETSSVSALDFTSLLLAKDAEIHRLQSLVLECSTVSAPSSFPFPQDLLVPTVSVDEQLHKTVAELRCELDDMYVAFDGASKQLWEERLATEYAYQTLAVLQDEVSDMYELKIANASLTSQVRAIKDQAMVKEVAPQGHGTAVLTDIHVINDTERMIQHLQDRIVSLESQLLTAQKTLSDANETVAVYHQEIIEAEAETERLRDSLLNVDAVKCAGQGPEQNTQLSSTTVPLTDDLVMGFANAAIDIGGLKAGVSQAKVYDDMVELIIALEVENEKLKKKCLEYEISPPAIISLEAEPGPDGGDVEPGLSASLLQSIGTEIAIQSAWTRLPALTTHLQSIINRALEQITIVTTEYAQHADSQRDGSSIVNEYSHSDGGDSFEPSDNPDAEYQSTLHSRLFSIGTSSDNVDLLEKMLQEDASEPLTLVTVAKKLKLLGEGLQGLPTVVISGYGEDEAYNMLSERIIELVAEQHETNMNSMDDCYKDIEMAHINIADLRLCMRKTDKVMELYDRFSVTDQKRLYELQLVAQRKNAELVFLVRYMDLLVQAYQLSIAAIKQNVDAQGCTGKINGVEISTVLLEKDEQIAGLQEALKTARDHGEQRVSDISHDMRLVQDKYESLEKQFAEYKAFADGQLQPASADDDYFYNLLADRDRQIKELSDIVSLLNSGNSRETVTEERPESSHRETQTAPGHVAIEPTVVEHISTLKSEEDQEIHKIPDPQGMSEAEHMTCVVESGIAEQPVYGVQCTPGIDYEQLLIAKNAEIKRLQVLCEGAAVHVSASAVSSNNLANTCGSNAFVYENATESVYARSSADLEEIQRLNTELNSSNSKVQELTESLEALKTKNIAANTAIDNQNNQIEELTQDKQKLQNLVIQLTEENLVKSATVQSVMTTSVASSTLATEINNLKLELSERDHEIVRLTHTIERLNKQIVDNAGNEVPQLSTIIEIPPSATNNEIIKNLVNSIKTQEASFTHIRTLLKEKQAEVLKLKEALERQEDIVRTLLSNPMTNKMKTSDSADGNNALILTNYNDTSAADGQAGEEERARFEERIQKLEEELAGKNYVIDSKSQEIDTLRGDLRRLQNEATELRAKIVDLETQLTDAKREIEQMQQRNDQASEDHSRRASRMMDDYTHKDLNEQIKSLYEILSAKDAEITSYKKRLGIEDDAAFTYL
UniProt A8BQ62: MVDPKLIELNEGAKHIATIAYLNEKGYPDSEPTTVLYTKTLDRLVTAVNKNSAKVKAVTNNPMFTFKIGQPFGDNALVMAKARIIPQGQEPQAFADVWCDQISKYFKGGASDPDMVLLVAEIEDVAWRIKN
UniProt A8BUF3: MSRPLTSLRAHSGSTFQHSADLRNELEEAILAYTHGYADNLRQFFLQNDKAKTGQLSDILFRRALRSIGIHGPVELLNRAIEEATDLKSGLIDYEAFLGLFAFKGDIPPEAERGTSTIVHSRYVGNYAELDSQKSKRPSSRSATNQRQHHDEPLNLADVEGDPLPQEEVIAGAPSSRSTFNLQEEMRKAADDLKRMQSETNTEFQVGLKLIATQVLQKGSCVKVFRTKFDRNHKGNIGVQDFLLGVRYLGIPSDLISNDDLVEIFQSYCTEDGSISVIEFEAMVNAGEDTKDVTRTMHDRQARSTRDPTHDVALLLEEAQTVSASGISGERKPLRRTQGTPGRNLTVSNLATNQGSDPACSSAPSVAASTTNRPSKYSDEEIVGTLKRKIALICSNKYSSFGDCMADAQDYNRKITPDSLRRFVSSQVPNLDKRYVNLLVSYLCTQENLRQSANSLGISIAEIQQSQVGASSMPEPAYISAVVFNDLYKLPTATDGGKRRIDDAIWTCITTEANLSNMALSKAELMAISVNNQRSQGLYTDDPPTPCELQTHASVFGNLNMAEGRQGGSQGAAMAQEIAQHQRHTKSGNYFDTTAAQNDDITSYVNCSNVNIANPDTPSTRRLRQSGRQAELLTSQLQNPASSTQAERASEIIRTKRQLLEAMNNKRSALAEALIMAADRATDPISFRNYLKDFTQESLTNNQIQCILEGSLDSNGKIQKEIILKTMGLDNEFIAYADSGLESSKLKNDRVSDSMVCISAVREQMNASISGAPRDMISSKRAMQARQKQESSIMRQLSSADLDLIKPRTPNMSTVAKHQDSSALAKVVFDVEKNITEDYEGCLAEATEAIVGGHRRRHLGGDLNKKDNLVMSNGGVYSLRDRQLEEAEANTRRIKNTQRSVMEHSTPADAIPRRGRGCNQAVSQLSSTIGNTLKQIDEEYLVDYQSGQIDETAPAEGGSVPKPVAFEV

T1: Giardia lamblia actin (GlActin) (Giardia lamblia (endogenous in strain WB clone 6)), P51775
T1 chain: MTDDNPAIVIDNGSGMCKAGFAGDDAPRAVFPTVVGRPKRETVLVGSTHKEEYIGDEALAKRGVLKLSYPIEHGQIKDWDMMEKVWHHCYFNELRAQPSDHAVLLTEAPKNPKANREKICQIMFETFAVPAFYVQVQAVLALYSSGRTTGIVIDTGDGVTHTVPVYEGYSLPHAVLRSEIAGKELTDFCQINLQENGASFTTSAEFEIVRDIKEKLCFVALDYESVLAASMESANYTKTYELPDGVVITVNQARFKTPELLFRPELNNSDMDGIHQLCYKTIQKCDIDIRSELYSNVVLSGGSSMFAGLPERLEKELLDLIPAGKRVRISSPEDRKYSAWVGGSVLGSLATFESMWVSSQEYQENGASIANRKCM

B1: 14-3-3, E2RU97 1-248 (protein)
chain: MAEAFTREDYVFMAQLNENAERYDEMVETMRKISGMEGELSDKERNLLSVAYKNVIGPRRAAWRIVSSIEAKEKGRQKPNAKRIEQIRVYRQKIEKELSDICNDILKLLQEQFVPRSTNADAKVFYYKMQGDYYRYLAEYSSGEDKEKIAGSALNAYNSAFEISQQLPPTHPIRLGLALNFSVFYYEILASPDRACELARKAFDAAITDLDKLTEESYKDSTLIMQLLRDNLNLWVTDSAGDDNAEEK

The molecules below were run against Giardia lamblia actin (GlActin) (Giardia lamblia (endogenous in strain WB clone 6)) (UniProt P51775) (assay: affinity purification with mass spectrometry). Settings: not given.
For “GL50803_4383 (ankyrin repeat protein) (from UniProt A8BPT7)”, the binding was “binds”. With “GL50803_15124 (dynein light chain) (from UniProt A8BDA9)” the binding was “binds”. With GL50803_16522 (from UniProt A0A644F787) the binding was “binds”. “GL50803_113622 (ankyrin-repeat domains) (from UniProt A8BKY7)” was tested, and the binding was “binds”. “GL50803_27925 (ankyrin-repeat domains) (from UniProt A8B440)” was tested, and the binding was “binds”. For “GL50803_17230 (gamma-giardin) (from UniProt E2RTN7)”, the binding was “binds”. For “GL50803_21423 (beta adaptin) (from UniProt A8B9U8)”, the binding was “binds”. With “GL50803_24451 (FGF domain) (from UniProt A8BGY8)” the binding was “binds”. For “GL50803_9030 (ankyrin repeat) (from UniProt A8BXV9)”, the binding was “binds”. With “GL50803_33685 (armadillo repeat) (from UniProt A8BMP5)” the binding was “binds”. For “GL50803_15591 (coil coil protein) (from UniProt A0A644F565)”, the binding was “binds”. GL50803_5810 (from UniProt A8BQ62) was tested, and the binding was “binds”. For “GL50803_13930 (Arf3) (from UniProt A8BCC2)”, the binding was “binds”. “GL50803_14213 (coiled coil domain) (from UniProt A8B470)” was tested, and the binding was “binds”. In the case of “GL50803_4259 (clathrin light chain) (from UniProt A8BHA7)”, the binding is reported as “binds”. With “GL50803_17153 (alpha-11 giardin) (from UniProt Q4VPP2)” the binding was “binds”. GL50803_8726 (from UniProt A8BUF3) was tested, and the binding was “binds”. With “GL50803_8044 (7 transmembrane domain) (from UniProt A8BZB0)” the binding was “binds”. With “GL50803_115478 (ankyrin repeat) (from UniProt A8BR64)” the binding was “binds”. In the case of “GL50803_23833 (VPS35) (from UniProt E2RU45)”, the binding is reported as “binds”. In the case of “GL50803_9848 (dynein light chain) (from UniProt A8BL61)”, the binding is reported as “binds”. For “GL50803_4463 (dynein light chain) (from UniProt A8BYC9)”, the binding was “binds”. “GL50803_103855 (VPS29) (from UniProt A0A644F1B7)” was tested, and the binding was “binds”. In the case of “GL50803_102813 (ankyrin repeat protein) (from UniProt A8BAG8)”, the binding is reported as “binds”.

Biological target: T1, Giardia lamblia actin (GlActin) …
Test: affinity purification with mass spectrometry
Settings: remark: other sources report otherwise
With B1 the binding was “binds”.
